# Experimental data from PubChem BioAssay AID330 (DTP/NCI, 2004).
# The list does not hold the whole screen: it gathers tests that were run many times, whatever their T/C, doses with no T/C, and many T/C values between a quarter and a half above the control. Other doses and runs of a compound stand elsewhere. T/C: endpoint of the treated group in % of that of the vehicle group. Some doses have a count of surviving animals in place of a T/C: the source files T/C as zero there, which appears to mark a toxic dose or a test without result, not a measured value. Some doses without a T/C left all or most animals alive at the check, yet need not have been tolerated: the source hardly ever lists a survival T/C far under the control, and the zero likely stands for such cases as well. Counts of survivors are from the toxicity check (mostly the fifth day) where no day follows; animals may have died later. Schedule codes are those of the source, read here as Q, the interval in days (D) or hours (H), X, the number of doses. Some entries hold several experiments; the values are given in rising order. Some structures stand for samples that the source files as different forms (salt, stereo form or complex); doses refer to the form tested. Where survival is the endpoint, this PubChem deposit counts one and a half times the control or more as active, and values a quarter to a half above the control carry no call in these data; other NCI protocols may use other cut-offs. Some T/C values carry the count of animals alive at the toxicity check (mostly the fifth day); without a count, all were alive then.
# Test system: P388 leukemia ip, CD2F1 mice, survival T/C
# Experiment: NCI In Vivo Anticancer Drug Screen. Data for tumor model P388 Leukemia (intraperitoneal) in CD2F1 (CDF1) mice
# Conditions: T/C endpoint: median survival time, higher T/C = longer survival
# [1] = dose: 240.0 mg/kg/injection, schedule: Q01DX005 (ip), vehicle: Klucel (hydroxypropylcellulose) (HPC)
# [2] = dose: 240.0 mg/kg/injection, schedule: Q01DX005 (ip), vehicle: saline with Tween-80
# [3] = dose: 12.5 mg/kg/injection, schedule: Q01DX009 (ip), vehicle: saline
# [4] = dose: 25.0 mg/kg/injection, schedule: Q01DX009 (ip), vehicle: saline
# [5] = dose: 50.0 mg/kg/injection, schedule: Q01DX009 (ip), vehicle: saline
# [6] = dose: 100.0 mg/kg/injection, schedule: Q01DX009 (ip), vehicle: saline
# [7] = dose: 200.0 mg/kg/injection, schedule: Q01DX009 (ip), vehicle: Klucel (hydroxypropylcellulose) (HPC)
# [8] = dose: 200.0 mg/kg/injection, schedule: Q01DX005 (ip), vehicle: Klucel (hydroxypropylcellulose) (HPC)
# [9] = dose: 50.0 mg/kg/injection, schedule: Q01DX009 (ip), vehicle: saline with Tween-80
# [10] = dose: 100.0 mg/kg/injection, schedule: Q01DX009 (ip), vehicle: saline with Tween-80
# [11] = dose: 200.0 mg/kg/injection, schedule: Q01DX009 (ip), vehicle: saline
# [12] = dose: 200.0 mg/kg/injection, schedule: Q01DX009 (ip), vehicle: saline with Tween-80
# [13] = dose: 200.0 mg/kg/injection, schedule: Q01DX005 (ip), vehicle: saline
# [14] = dose: 12.5 mg/kg/injection, schedule: Q01DX009 (ip), vehicle: saline with Tween-80
# [15] = dose: 25.0 mg/kg/injection, schedule: Q01DX009 (ip), vehicle: saline with Tween-80
structure (smiles),measurement,setting,value
COc1cc(C=Nc2ccc(Cl)cc2)ccc1N(CCCl)CCCl,T/C,"dose: 1.25 mg/kg/injection, schedule: Q01DX009 (ip), vehicle: saline with Tween-80",133 % of control
same,T/C,"dose: 1.5 mg/kg/injection, schedule: Q01DX009 (ip), vehicle: saline with Tween-80",131 % of control
same,T/C,"dose: 100.0 mg/kg/injection, schedule: Q04DX003 (ip), vehicle: saline with Tween-80",145 % of control [5 of 6 alive]
same,survivor count,"dose: 200.0 mg/kg/injection, schedule: Q04DX003 (ip), vehicle: saline with Tween-80",3 of 6
COc1ccccc1N1CCN(c2nc(NC(=O)c3ccccc3)nn2C)CC1,survivor count,[1],5 of 6
COC1/C=C\C=C(/C)C(=O)NC2=CC(=O)C=C(C2=O)C(OC)C(C)CC(OC)C(OC)C(C)/C=C(/C)C1OC(N)=O (configuration not stated),survivor count,"dose: 12.0 mg/kg/injection, schedule: Q01DX009 (ip), vehicle: Klucel (hydroxypropylcellulose) (HPC)",5 of 6
same,survivor count,"dose: 24.0 mg/kg/injection, schedule: Q01DX009 (ip), vehicle: Klucel (hydroxypropylcellulose) (HPC)",3 of 6
O=c1oc2nc(-c3ccccc3)[nH]c(=O)c2c2c1CCCC2,survivor count,"dose: 60.0 mg/kg/injection, schedule: Q01DX005 (ip), vehicle: Klucel (hydroxypropylcellulose) (HPC)",6 of 6
same,survivor count,"dose: 120.0 mg/kg/injection, schedule: Q01DX005 (ip), vehicle: Klucel (hydroxypropylcellulose) (HPC)",5 of 6
same,survivor count,[1],0 of 6
CSc1nc(NC2OC(COC(C)=O)C(OC(C)=O)C(OC(C)=O)C2OC(C)=O)c(N=CC=Nc2c(NC3OC(COC(C)=O)C(OC(C)=O)C(OC(C)=O)C3OC(C)=O)nc(SC)n(C)c2=O)c(=O)n1C (configuration not stated),survivor count,[2],6 of 6
O=[N+]([O-])c1ccc(CS(=O)(=O)C(Cl)(Cl)Cl)o1,T/C,[3],115 % of control
same,survivor count,[3],3 of 6 and 5 of 6
same,T/C,[4],"92, 99, 109, 110 % of control"
same,survivor count,[5],4 of 6
same,survivor count,"dose: 100.0 mg/kg/injection, schedule: Q01DX009 (ip), vehicle: suspension in saline",6 of 6
Cc1cccc2c1nc(C)c1nc(-c3ccccc3)oc12,survivor count,"dose: 50.0 mg/kg/injection, schedule: Q01DX005 (ip), vehicle: saline with Tween-80",5 of 5
CC12CCC(C/C1=N\[N+](=O)[O-])C2(C)C (configuration not stated),survivor count,[6],3 of 6
O=C1C(NCC(O)CO)=C(N2CC2)C(=O)C(NCC(O)CO)=C1N1CC1 (configuration not stated),survivor count,"dose: 6.0 mg/kg/injection, schedule: Q01DX009 (ip), vehicle: saline",6 of 6
c1cc2cc(-c3ccc(-c4cc5ccc(C6=NCCN6)cc5[nH]4)cc3)[nH]c2cc1C1=NCCN1,T/C,"dose: 100.0 mg/kg/injection, schedule: Q04DX003 (ip), vehicle: saline",138 % of control
same,T/C,"dose: 200.0 mg/kg/injection, schedule: Q04DX003 (ip), vehicle: saline",138 % of control
same,T/C,"dose: 400.0 mg/kg/injection, schedule: Q04DX003 (ip), vehicle: saline",130 % of control
Oc1ccc(Cl)cc1C1c2ccccc2Oc2ccccc21,survivor count,[7],6 of 6
CN1C(=O)NC(C)(c2cccc(N(CCCl)CCCl)c2)C1=O (configuration not stated),T/C,"dose: 50.0 mg/kg/injection, schedule: Q01DX009 (ip), vehicle: Klucel (hydroxypropylcellulose) (HPC)",131 % of control
CCN(CC)CCSSCCN(CC)CC.[Cl][Mn][Cl],survivor count,[8],0 of 6
CCCCCN(CCCCC)CC(O)c1c(OC)ccc2ccccc12 (configuration not stated),survivor count,"dose: 100.0 mg/kg/injection, schedule: Q01DX009 (ip), vehicle: Klucel (hydroxypropylcellulose) (HPC)",1 of 6
same,survivor count,[7],0 of 6
same,survivor count,"dose: 400.0 mg/kg/injection, schedule: Q01DX009 (ip), vehicle: Klucel (hydroxypropylcellulose) (HPC)",0 of 6
COc1cc(/C=N/OC(=O)Nc2ccccc2)cc(OC)c1OC,survivor count,[9],6 of 6
COC(=O)C1CC(C(=O)OC)c2nc3ccccc3nc21 (configuration not stated),survivor count,[1],0 of 6
FP1(c2ccccc2)(c2ccccc2)Nc2cc(C(c3ccccc3)(c3ccccc3)c3ccccc3)ccc2O1,survivor count,[9],6 of 6
same,survivor count,[10],6 of 6
Cc1nc2ccccc2c(=O)n1-c1nc2ccccc2s1,survivor count,"dose: 60.0 mg/kg/injection, schedule: Q01DX005 (ip), vehicle: saline with Tween-80",6 of 6
same,survivor count,[2],6 of 6
CCNCC(O)c1cccc(C(F)(F)F)c1 (configuration not stated),survivor count,[11],0 of 6
C=C1C(O)C2(O)OCC34C(CC5C(C)=CC(=O)C(O)C5(C)C23)OC(=O)C(OC(=O)C/C=C/CCCCCCCC)C14 (configuration not stated),T/C,"dose: 0.5 mg/kg/injection, schedule: Q01DX005 (ip), vehicle: saline + alcohol",125 and 131 % of control
same,T/C,"dose: 1.0 mg/kg/injection, schedule: Q01DX005 (ip), vehicle: saline + alcohol",133 and 136 % of control
same,T/C,"dose: 2.0 mg/kg/injection, schedule: Q01DX005 (ip), vehicle: saline + alcohol",137 % of control
CCCCCCCCCCCCOC(=O)c1ccc(O)cc1,survivor count,[7],5 of 6
CC[n+]1ccc(/C=C\c2c(Cl)cccc2Cl)cc1,survivor count,[5],4 of 6
CC(C(=O)O)N1C(=O)C=CC1=O (configuration not stated),survivor count,[9],0 of 6 and 1 of 6
same,survivor count,[10],0 of 6
same,survivor count,[12],0 of 6
CC1(C)CSCC(C)(C)C2(C=CC=CC=N2)C1=O (configuration not stated),survivor count,[8],4 of 5
COc1ccc(-c2n(O)c(C)c(C)[n+]2[O-])cc1,survivor count,[10],4 of 6
same,survivor count,[12],0 of 6
CC1=CCCN(C)C1c1ccccc1 (configuration not stated),survivor count,[13],0 of 5
COc1ccc2[nH]c(C)cc2c1CN,survivor count,[3],6 of 6
same,survivor count,[4],0 of 6
same,survivor count,[5],0 of 6
same,survivor count,[6],0 of 6
same,survivor count,[11],0 of 6
C[Si]1(C)CC[Si](C)(C)OS(=O)(=O)CS(=O)(=O)O1,survivor count,[8],1 of 6
C[Si](C)(C)CN1CCCC1,survivor count,[13],0 of 6
COc1ccc(C2=NC(c3ccccc3)N3C(c4ccccc4)NC(c4ccccc4)C2C3c2ccccc2)cc1 (configuration not stated),survivor count,[10],6 of 6
COc1ccc([N+](=O)[O-])c(C=O)c1OS(=O)(=O)c1ccc(C)c([N+](=O)[O-])c1,survivor count,"dose: 50.0 mg/kg/injection, schedule: Q01DX009 (ip), vehicle: distilled water + Tween-80",6 of 6
C=C(C)C(=NC(C)(C)C)N(C(C)C)C(C)C,survivor count,[14],6 of 6
same,survivor count,[15],5 of 6
same,survivor count,"dose: 50.0 mg/kg/injection, schedule: Q01DX005 (ip), vehicle: Klucel (hydroxypropylcellulose) (HPC)",2 of 5
same,survivor count,[9],6 of 6
same,survivor count,[5],0 of 6
same,survivor count,"dose: 100.0 mg/kg/injection, schedule: Q01DX005 (ip), vehicle: Klucel (hydroxypropylcellulose) (HPC)",0 of 5
same,survivor count,[10],0 of 6 and 4 of 6
same,survivor count,[6],0 of 6
same,survivor count,[8],0 of 5
same,survivor count,[12],0 of 6
CN(C)CCCOc1ccc(NC2=C(Cl)C(=O)C(Nc3ccc(OCCCN(C)C)cc3)=C(Cl)C2=O)cc1,survivor count,"dose: 50.0 mg/kg/injection, schedule: Q01DX005 (ip), vehicle: saline",1 of 5
same,survivor count,"dose: 100.0 mg/kg/injection, schedule: Q01DX005 (ip), vehicle: saline",0 of 5
same,survivor count,[13],0 of 5
COc1ccc2nc3cc(Cl)ccc3c(NCCNCCNCCNc3c4ccc(Cl)cc4nc4ccc(OC)cc34)c2c1,T/C,[14],137 % of control
same,T/C,[15],137 % of control
same,survivor count,[10],4 of 6
Cc1ccc(NC(=O)Oc2ccc(Br)cc2Br)c([N+](=O)[O-])c1,T/C,[12],126 % of control
COc1cc(N(CC(C)Br)CC(C)Br)ccc1N=Nc1ccccc1C(=O)O (configuration not stated),T/C,"dose: 1.56 mg/kg/injection, schedule: Q01DX009 (ip), vehicle: saline with Tween-80",146 % of control
same,T/C,"dose: 6.25 mg/kg/injection, schedule: Q01DX009 (ip), vehicle: saline with Tween-80","175, 191, 220, 236 % of control"
same,T/C,[14],"120, 230, 262 % of control [5 of 6 alive]"
same,survivor count,[14],5 of 6
same,survivor count,[15],2 of 6 and 5 of 6
same,survivor count,[9],0 of 6
same,survivor count,[10],0 of 6
same,survivor count,[12],0 of 6
CC(=O)C(=CN(C)c1ccc([N+](=O)[O-])cc1)C(C)=O,survivor count,[5],6 of 6
